Laboratory results: PubChem BioAssay AID1259424 (University of Nebraska Medical Center, 2018)
In all, the deposit lists about 14,000 reagents; this is a part drawn at random. 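Higher correlation or smaller distance means closer resemblance to KSR1 loss; control wells, including KSR1 knockdowns, recur on many plates.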 Further read-outs or replicates are left out here. Not stated in the record: the time to read-out.

Aim: 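Find knockdowns that reproduce the expression shifts seen after KSR1 loss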 (primary screen)
System: human HCT116 colon cancer cells
Knock-down reagent: siRNA pool against human genes, 50 nM
Read-out: 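Six signature mRNAs by branched-DNA multiplex assay, scaled to two housekeeping genes and non-targeting median, log2; matched to mean KSR1 knockdown profile by Pearson correlation and euclidean distance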
Direction: mean correlation with KSR1 profile and KSR1 correlation: higher = expression change more like KSR1 knockdown; mean distance from KSR1 profile: higher = expression change less like KSR1 knockdown

gene symbol,mean correlation with KSR1 profile,mean distance from KSR1 profile,"KSR1 correlation, replicate 1","KSR1 correlation, replicate 2"
FBXL19 (F-box and leucine rich repeat protein 19),-0.51,3.71,-0.535,-0.396
KDSR (3-ketodihydrosphingosine reductase),0.376,1.84,0.457,0.479
NLRC4 (NLR family CARD domain containing 4),0.435,2.76,0.517,0.459
AFG3L2 (AFG3 like matrix AAA peptidase subunit 2),-0.218,2.61,0.0744,-0.223
S100A14 (S100 calcium binding protein A14),0.604,1.03,0.251,0.595
SLC4A1AP,0.177,2.35,0.0272,0.158
ZNF407 (zinc finger protein 407),-0.407,6.55,-0.0814,0.00745
WDR19 (WD repeat domain 19),-0.313,1.6,-0.362,-0.0278
INSL6 (insulin like 6),-0.493,1.53,-0.429,-0.485
S100A11 (S100 calcium binding protein A11),-0.269,3.31,-0.32,-0.4
BEST3 (bestrophin 3),-0.38,2.68,-0.577,-0.171
RBP4 (retinol binding protein 4),0.0813,2.04,0.235,0.0132
GIPC1 (GIPC PDZ domain containing family member 1),0.837,0.868,0.788,0.928
SFTPB (surfactant protein B),-0.21,2.54,-0.217,-0.171
MS4A4A (membrane spanning 4-domains A4A),0.0575,1.7,0.224,-0.0583
UBR5 (ubiquitin protein ligase E3 component n-recognin 5),0.145,0.986,-0.32,0.084
PLEC (plectin),0.188,1.19,0.344,0.174
CILK1 (ciliogenesis associated kinase 1),0.304,2.41,0.396,0.401
PEX5 (peroxisomal biogenesis factor 5),0.0574,2.59,0.0245,0.084
"B3GAT3 (beta-1,3-glucuronyltransferase 3)",-0.697,2.69,-0.495,-0.834
GJC2 (gap junction protein gamma 2),-0.226,1.94,-0.14,-0.554
WDHD1 (WD repeat and HMG-box DNA binding protein 1),-0.315,1.98,0.127,-0.347
ASNS (asparagine synthetase (glutamine-hydrolyzing)),0.163,1.94,-0.361,0.315
TFDP3 (transcription factor Dp family member 3),-0.239,1.46,-0.336,-0.236
AURKB (aurora kinase B),0.461,2.38,0.733,0.104
RTN4R (reticulon 4 receptor),-0.511,2.71,-0.566,-0.325
MEST (mesoderm specific transcript),0.703,0.945,0.727,0.592
TIMM17A (translocase of inner mitochondrial membrane 17A),0.0984,2.43,0.241,-0.00294
CACFD1 (calcium channel flower domain containing 1),0.253,1.49,0.345,0.101
SPAST (spastin),0.0899,2.58,0.178,0.253
EVI2B (ecotropic viral integration site 2B),0.0281,1.57,-0.00201,-0.323
CFAP298 (cilia and flagella associated protein 298),-0.69,2.98,-0.556,-0.719
C19orf53 (chromosome 19 open reading frame 53),-0.2,1.8,-0.656,-0.484
RUNX1-IT1 (RUNX1 intronic transcript 1),-0.0458,2.83,-0.356,-0.00429
PPARG (peroxisome proliferator activated receptor gamma),-0.229,2.59,-0.00668,-0.116
PRC1 (protein regulator of cytokinesis 1),-0.303,2.56,-0.522,-0.334
RIOK1 (RIO kinase 1),0.44,2.24,0.444,0.49
TAF1A,0.111,1.09,0.201,0.0833
MIS18BP1 (MIS18 binding protein 1),0.193,1.92,0.328,-0.424
UBAP2L (ubiquitin associated protein 2 like),0.0333,2.5,-0.0106,-0.249
IRF9 (interferon regulatory factor 9),-0.0862,1.5,0.597,-0.198
NHLH2 (nescient helix-loop-helix 2),-0.523,1.78,-0.338,-0.397
KCTD17 (potassium channel tetramerization domain containing 17),-0.331,1.98,-0.26,-0.346
IL2 (interleukin 2),0.29,1.72,0.263,0.306
FGF19 (fibroblast growth factor 19),-0.161,0.976,0.443,-0.503
IGFBP1 (insulin like growth factor binding protein 1),0.69,1.1,0.763,0.688
"REV3L (REV3 like, DNA directed polymerase zeta catalytic subunit)",0.709,0.586,0.531,0.772
SMARCD2 (SWI/SNF related BAF chromatin remodeling complex subunit D2),-0.299,2.18,-0.359,0.0279
ARHGAP31 (Rho GTPase activating protein 31),-0.623,2.85,-0.528,-0.419
LRRN3 (leucine rich repeat neuronal 3),-0.39,1.74,-0.535,-0.267
PARVA (parvin alpha),0.563,1.59,0.521,0.409
ATG2A (autophagy related 2A),0.632,1.85,0.797,0.556
ILF3 (interleukin enhancer binding factor 3),-0.21,2.24,-0.0786,-0.0107
AP3B1 (adaptor related protein complex 3 subunit beta 1),-0.285,1.37,-0.0693,-0.926
DNM2 (dynamin 2),-0.578,4.06,-0.517,-0.722
THOC1 (THO complex subunit 1),-0.26,2.61,-0.263,-0.259
SLC8B1,0.613,1.11,0.775,0.368
ZFP2 (ZFP2 zinc finger protein),-0.387,2.73,-0.232,-0.738
CD226 (CD226 molecule),0.131,2.56,0.342,-0.00678
GLB1L (galactosidase beta 1 like),0.376,1.96,0.429,0.333
MATR3 (matrin 3),-0.389,2.47,-0.417,-0.351
"H1-3 (H1.3 linker histone, cluster member)",0.248,1.02,-0.164,0.187
CSK (C-terminal Src kinase),0.187,2.47,0.183,0.378

Sorted by “KSR1 correlation, replicate 2” (ascending): some entries from above
gene symbol,mean correlation with KSR1 profile,mean distance from KSR1 profile,"KSR1 correlation, replicate 1","KSR1 correlation, replicate 2"
BEST3 (bestrophin 3),-0.38,2.68,-0.577,-0.171
SFTPB (surfactant protein B),-0.21,2.54,-0.217,-0.171
MS4A4A (membrane spanning 4-domains A4A),0.0575,1.7,0.224,-0.0583
RBP4 (retinol binding protein 4),0.0813,2.04,0.235,0.0132
UBR5 (ubiquitin protein ligase E3 component n-recognin 5),0.145,0.986,-0.32,0.084
PLEC (plectin),0.188,1.19,0.344,0.174
CILK1 (ciliogenesis associated kinase 1),0.304,2.41,0.396,0.401
GIPC1 (GIPC PDZ domain containing family member 1),0.837,0.868,0.788,0.928
